Assay results taken from PubChem BioAssay AID1794845 (National Center for Advancing Translational Sciences (NCATS), 2023).
Screen size: about 6,900 compounds; fewer than 10 were called active. The call rests on the fitted dose curve; in most records, active means well fitted curve in the direction sought with a large enough effect; inconclusive means small, poorly fitted or top-dose-only effect, or another doubt; inactive means no such curve, though single readings can be large or run the other way. The list shows a part of the results.

The chains behind the UniProt entries cited, without tags or fusion partners. Where a name states a change or a piece, a line headed by the entry shows the natural chain unless it says otherwise.
UniProt C7C422: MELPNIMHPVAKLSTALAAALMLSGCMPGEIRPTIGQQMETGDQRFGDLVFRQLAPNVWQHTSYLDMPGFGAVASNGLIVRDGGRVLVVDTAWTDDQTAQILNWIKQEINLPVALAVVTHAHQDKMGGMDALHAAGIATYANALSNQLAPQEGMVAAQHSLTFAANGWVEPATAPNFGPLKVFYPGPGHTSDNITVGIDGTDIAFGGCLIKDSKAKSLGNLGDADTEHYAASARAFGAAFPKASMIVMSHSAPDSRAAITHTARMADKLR

target: Metallo-beta-lactamase type 2 (Klebsiella pneumoniae) (UniProt C7C422); assay: qHTS to identify inhibitors of the New Delhi Metallo-beta-lactamase (NDM): primary screen against the NCATS Gemini Collection; conditions: NDM-1 enzyme, meropenem hydrolysis, absorbance 300 nm; at 38.4 µM (top of the series) unless noted; further: % of control where 0% means no effect
Method in brief: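 Meropenem hydrolysis (50 uM final) by 2 nM NDM-1 read as 300 nm absorbance after 30 min, following >30 min compound–enzyme preincubation in HEPES pH 7.0 with 1 uM ZnSO4 and 0.01% Tween20.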

| SMILES | activity % (negative = inhibition) |
| --- | --- |
| CC(=O)Nc1ccc(NC(=O)c2cccc(CN3CCCC(C#N)C3)c2)cc1 (stereo not given) | inactive: 31.4% |
| CCCCS(=O)(=O)N[C@@H]1CN(Cc2ccncc2)C[C@H]1CN(C)C | inactive: 0.381% |
| CCOCCOC1CCN(C(=O)c2cnccn2)CC1 | inactive: -2.62% |
| COc1cccc(N2CCN(C(=O)CCC[C@@H]3[C@H]4CCCN5CCC[C@@H](CN3C)[C@@H]45)CC2)c1 | inactive: 0.833% |
| NC1CCCCN(C(=O)c2ccc3n[nH]nc3c2)C1 (stereo not given) | inactive: 1.28% |
| COCC1CN(C)CC12CCN(C(=O)CC1=CCCCC1)CC2 (stereo not given) | inactive: -3.71% |
| O=C(Cc1cccs1)N1CCN(c2cc(C(F)(F)F)ncn2)CC1 | inactive: 4.27% |
| COCCN1C(=O)c2cccn2CC1CNS(=O)(=O)c1c(C)noc1C (stereo not given) | inactive: 17.6% |
| COc1ccc(C[C@H](NC(=O)[C@@]2(O)C[C@@H](O)[C@H](O)[C@@H](NS(=O)(=O)c3cccc(C(F)(F)F)c3)C2)C(N)=O)cc1 | inactive: 25.1% |
| COCC(=O)N1CC(C(=O)N2CCCCC2)[C@H](c2ccncc2)C1 (stereo not given in full) | inactive: 0.277% |
| COCCN1CC(CO)C2(CCN(C3CCN(C(C)=O)CC3)CC2)C1 (stereo not given) | inactive: 10.7% |
| O=C(c1ccccc1)N1CCCC2(CC(c3ccccc3)=NO2)C1 (stereo not given) | inactive: -13.7% |
| CN1CCC(Oc2ncccc2NC(=O)c2ccncc2)C1 (stereo not given) | inactive: 12.3% |
| O=C(c1cnccn1)N1CCC(Oc2cccnc2)C1 (stereo not given) | inactive: 0.376% |
| COc1ccc(-c2nc(-c3ccccc3)nc3c2CN([S+](=O)([O-])c2cccs2)CC3)cc1 | inactive: 1.57% |
| FC(F)(F)c1ccc(O[C@H]2COCCN(Cc3cccnc3)C2)nc1 | inactive: 0.0862% [at 57.5 µM] |
| Cc1cc(C[C@@H]2COC[C@@H]2NC(=O)CCc2nc(-c3ccco3)no2)on1 | inactive: 10.4% |
| CCCCc1ccc(-n2cc(CN3CCN(C(C)=O)CC(O)C3)cn2)cc1 (stereo not given) | inactive: 19.4% |
| CC(C)N1CC[C@@H]2[C@H]1C(=O)NC[C@H](CCC(=O)NCc1ccc(F)cc1)N2C | inactive: 28% [at 57.5 µM] |
| O=C(c1ccc2ncccc2c1)N1CC(n2ccnc2)C1 | inactive: 0.214% |
| COc1cccc(CN2CCC3(CC2)COc2ccccc2CN3)c1 | inactive: 0.573% |
| CC(C)CCNC(=O)N1c2ccccc2CC1c1noc(C2CCOCC2)n1 (stereo not given) | inactive: 9.3% |
| Cn1c(Cn2cccn2)nnc1C1CC(Nc2ncnc3sccc23)C1 (stereo not given) | inactive: 11.8% |
| COc1ncccc1C(=O)N1CCc2onc(-c3cccc4ccccc34)c2C1 | inactive: 5.17% |
| COc1ccccc1-c1ccc(C(=O)N2C[C@@H](N(C)C)[C@H](C(C)C)C2)cc1 | inactive: 2.37% |
| COCC(=O)N1CCC[C@@H]1C(=O)N1CCC(N2CCOC2=O)CC1 | inactive: -3% [at 57.5 µM] |
| O=C(C1CC(=O)N(C2CC2)C1)N1CCC(Oc2ccccc2Cl)CC1 (stereo not given) | inactive: -1.39% |
| CCC(=O)N1CCC(OC2CCN(C(=O)CC3CCCCC3)CC2)CC1 | inactive: -1.04% |

| SMILES | activity % (negative = inhibition) |
| --- | --- |
| Cc1n[nH]c(C)c1CNC(=O)C1CCN(c2cn[nH]c(=O)c2)C1 (stereo not given) | inactive: 10.8% |
| NCCc1noc(Cc2ccccc2)n1 | inactive: 12.1% |
| O=C(CCc1nc2ccccc2s1)N[C@@H]1CCOC[C@H]1OCCO | inactive: 10.1% |
| CC1=C[C@@H](CNC2CCOCC2)[C@H](C(C)C)C[C@H]1Cc1nc2ccc(F)cc2[nH]1 | inactive: -1.97% [at 57.5 µM] |
| Cc1nc(N2CCN(C(=O)C(C)Oc3ccccc3)CC2)cc(C(F)(F)F)n1 (stereo not given) | inactive: 0.792% |
| O=C(NC[C@H]1OC[C@@H](NCc2ncc[nH]2)[C@@H]1O)c1cccs1 | inactive: 0.861% [at 57.5 µM] |
| Cc1noc2c(NC3CCN(C)CC3)cc(-c3cccs3)nc12 | inactive: 2.43% [at 57.5 µM] |
| Cn1c(=O)[nH]cc(CC(=O)NCc2cccnc2-n2ccnc2)c1=O | inactive: 10.9% |
| Cc1ccccc1CN1CCn2c(nn(CC3COc4ccccc4O3)c2=O)C1=O (stereo not given) | inactive: -8.83% |
| O=C1CC(c2nc(-c3cn4ccccc4n3)no2)CN1Cc1ccncc1 (stereo not given) | inactive: 13.7% |
| Cc1cnc(-c2ccccc2)n1CC1CCN(S(=O)(=O)Cc2ccccc2F)CC1 | inactive: -2.5% |
| Cn1nc(C(=O)NC2CC2)c2c1CN(C(=O)Cc1cccc(F)c1)C2 | inactive: 0.284% |
| CNc1nc2c(c(C(=O)N3CCCC3)n1)CN(CC1(O)CCNC1)CC2 (stereo not given) | inactive: 18.1% |
| COCC1CN(C2CCC2)CC12CCN(C(=O)NCCc1ccccc1)CC2 (stereo not given) | inactive: 1.49% |
| Cc1noc(C)c1C(=O)N1CCOc2ccc(CCC(=O)NCC3CC3)cc2C1 | inactive: -0.838% |
| O=C(c1ccccn1)N1CCN(C(=O)N2CC3CC(C2)[C@H]2CCCC(=O)N2C3)CC1 (stereo not given in full) | inactive: -2.06% |
| O=C(Nc1ccc(F)cc1)c1ccn2cncc2c1 | inactive: 18.5% [at 57.5 µM] |
| CCCc1cc(C(=O)N[C@@H]2CCOC[C@H]2OCCO)n(C)n1 | inactive: -0.104% |
| C=CCC1(CO)CCCN(Cc2nc(C)cc(-c3ccccc3)n2)C1 (stereo not given) | inactive: 20.6% |
| CN(Cc1ccc2nccnc2c1)C(=O)c1cc(COc2ccc(F)cc2F)on1 | inactive: 3.52% |
| CN(C)c1ccc(C(=O)N[C@H]2C[C@@H](c3nc(-c4ccc5ccccc5c4)no3)N(C)C2)cc1 | inactive: 17.5% |
| O=C(NCc1ccco1)C1COC2(CCN(C(=O)c3ccc(F)cc3)CC2)N1C(=O)c1ccco1 (stereo not given) | inactive: 10.9% |
| Cc1c(CN2CCCC23CCN(c2ccc(C(F)(F)F)cn2)CC3)cc(C#N)n1C | inactive: 0.849% |
| COc1cccc(CC(=O)N2CC[C@H](CO)[C@H](NC(=O)C3CC3)C2)c1 | inactive: 0.647% |
| CC(C)n1cc2cc(C(=O)Nc3ccc4c(c3)OCCO4)sc2c1 | inactive: 7.08% |
| O=C(NCC1CN(C(=O)NC2CCCCC2)CC12CCCCC2)C1CC1 (stereo not given) | inactive: -1.21% |
| Cn1cc2c3c(cccc31)CN(C(=O)c1ccccc1F)CC2 | inactive: 2.57% |

Three entries picked at random from those above:

| SMILES | activity % (negative = inhibition) |
| --- | --- |
| Cc1ccccc1CN1CCn2c(nn(CC3COc4ccccc4O3)c2=O)C1=O (stereo not given) | inactive: -8.83% |
| CN(Cc1ccc2nccnc2c1)C(=O)c1cc(COc2ccc(F)cc2F)on1 | inactive: 3.52% |
| O=C(CCc1nc2ccccc2s1)N[C@@H]1CCOC[C@H]1OCCO | inactive: 10.1% |
